Test results reported in the supplement of paper PMC7666118.
This is one part of the list.

Chains of the proteins cited; added tags and fusions are not shown. Lines headed by an entry give the natural chain unless they say otherwise; changes in a name come on top.
UniProt Q9H2P9: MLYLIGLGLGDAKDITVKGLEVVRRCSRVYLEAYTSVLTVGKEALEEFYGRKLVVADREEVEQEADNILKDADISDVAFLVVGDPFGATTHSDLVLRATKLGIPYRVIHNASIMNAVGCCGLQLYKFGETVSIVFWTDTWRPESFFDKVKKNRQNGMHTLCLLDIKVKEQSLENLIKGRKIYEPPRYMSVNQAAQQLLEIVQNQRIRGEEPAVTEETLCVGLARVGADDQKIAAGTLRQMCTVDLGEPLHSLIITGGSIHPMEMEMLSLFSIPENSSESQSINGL
UniProt O00115: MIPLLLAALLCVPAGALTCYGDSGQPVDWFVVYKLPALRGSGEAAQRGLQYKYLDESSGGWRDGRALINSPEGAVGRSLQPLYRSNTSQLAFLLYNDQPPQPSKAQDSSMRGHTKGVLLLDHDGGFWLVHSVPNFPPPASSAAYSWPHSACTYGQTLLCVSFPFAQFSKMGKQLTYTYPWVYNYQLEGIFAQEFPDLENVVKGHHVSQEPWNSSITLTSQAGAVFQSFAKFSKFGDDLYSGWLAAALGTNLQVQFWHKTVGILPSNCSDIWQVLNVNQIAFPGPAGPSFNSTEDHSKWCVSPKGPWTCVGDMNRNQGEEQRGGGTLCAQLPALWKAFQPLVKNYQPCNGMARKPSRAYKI
UniProt P78368: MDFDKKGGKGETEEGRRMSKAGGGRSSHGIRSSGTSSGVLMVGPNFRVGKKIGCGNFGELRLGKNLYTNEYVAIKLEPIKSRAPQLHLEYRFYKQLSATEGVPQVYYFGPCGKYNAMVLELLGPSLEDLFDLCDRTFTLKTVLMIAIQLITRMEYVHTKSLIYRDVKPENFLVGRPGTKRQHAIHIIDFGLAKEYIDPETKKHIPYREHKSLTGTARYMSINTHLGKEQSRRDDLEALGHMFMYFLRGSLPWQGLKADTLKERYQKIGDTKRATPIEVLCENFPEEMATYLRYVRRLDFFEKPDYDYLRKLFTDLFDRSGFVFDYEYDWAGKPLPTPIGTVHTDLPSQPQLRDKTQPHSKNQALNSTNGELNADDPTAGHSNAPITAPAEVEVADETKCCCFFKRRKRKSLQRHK
UniProt P11182, whole entry: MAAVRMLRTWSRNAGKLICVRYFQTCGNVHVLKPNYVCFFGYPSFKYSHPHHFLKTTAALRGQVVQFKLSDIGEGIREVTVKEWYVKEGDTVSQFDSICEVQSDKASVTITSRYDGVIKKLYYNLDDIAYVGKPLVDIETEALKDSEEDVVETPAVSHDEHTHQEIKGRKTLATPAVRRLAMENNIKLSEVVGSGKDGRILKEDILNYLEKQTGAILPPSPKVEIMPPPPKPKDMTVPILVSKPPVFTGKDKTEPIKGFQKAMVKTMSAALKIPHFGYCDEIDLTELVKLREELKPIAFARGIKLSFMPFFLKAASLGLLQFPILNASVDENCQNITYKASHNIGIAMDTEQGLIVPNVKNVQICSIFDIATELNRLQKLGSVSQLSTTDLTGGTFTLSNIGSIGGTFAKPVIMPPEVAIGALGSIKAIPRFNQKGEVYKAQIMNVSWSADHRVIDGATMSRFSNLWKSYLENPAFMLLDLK
UniProt P99999: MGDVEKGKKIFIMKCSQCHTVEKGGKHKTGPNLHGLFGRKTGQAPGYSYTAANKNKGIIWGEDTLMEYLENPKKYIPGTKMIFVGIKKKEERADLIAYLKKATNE
UniProt Q02127: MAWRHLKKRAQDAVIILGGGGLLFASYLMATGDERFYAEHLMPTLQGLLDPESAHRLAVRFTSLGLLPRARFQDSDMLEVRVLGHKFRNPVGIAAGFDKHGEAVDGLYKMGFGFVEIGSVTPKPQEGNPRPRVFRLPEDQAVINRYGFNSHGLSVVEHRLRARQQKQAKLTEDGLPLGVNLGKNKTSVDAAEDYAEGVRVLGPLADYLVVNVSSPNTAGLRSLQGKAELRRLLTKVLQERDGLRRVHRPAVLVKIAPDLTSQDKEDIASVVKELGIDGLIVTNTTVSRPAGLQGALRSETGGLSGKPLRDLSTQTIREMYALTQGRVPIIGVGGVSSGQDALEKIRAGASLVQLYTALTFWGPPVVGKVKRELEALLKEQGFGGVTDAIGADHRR
UniProt Q9UBS4: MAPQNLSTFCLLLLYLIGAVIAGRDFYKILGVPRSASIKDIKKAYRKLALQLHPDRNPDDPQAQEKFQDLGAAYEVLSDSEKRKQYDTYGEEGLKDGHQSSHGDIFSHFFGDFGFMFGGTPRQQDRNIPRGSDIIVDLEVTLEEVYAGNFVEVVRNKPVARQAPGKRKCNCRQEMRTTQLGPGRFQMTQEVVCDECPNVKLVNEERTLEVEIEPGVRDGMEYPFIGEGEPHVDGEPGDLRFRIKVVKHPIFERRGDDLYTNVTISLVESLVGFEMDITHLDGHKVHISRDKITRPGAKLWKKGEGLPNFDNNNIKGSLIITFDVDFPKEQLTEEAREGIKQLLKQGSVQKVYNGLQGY
UniProt Q9UJU6: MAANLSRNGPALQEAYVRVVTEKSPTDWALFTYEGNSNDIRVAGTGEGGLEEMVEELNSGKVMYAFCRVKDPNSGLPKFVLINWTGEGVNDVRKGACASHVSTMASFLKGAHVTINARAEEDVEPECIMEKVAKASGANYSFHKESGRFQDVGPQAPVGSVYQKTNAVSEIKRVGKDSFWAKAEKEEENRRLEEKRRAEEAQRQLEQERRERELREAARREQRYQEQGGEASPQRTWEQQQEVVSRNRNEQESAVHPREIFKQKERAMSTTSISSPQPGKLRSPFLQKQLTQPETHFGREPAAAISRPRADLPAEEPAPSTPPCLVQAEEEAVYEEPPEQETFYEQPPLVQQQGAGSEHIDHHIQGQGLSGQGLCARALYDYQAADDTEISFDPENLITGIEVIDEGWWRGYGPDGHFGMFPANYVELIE
UniProt Q92785, whole entry: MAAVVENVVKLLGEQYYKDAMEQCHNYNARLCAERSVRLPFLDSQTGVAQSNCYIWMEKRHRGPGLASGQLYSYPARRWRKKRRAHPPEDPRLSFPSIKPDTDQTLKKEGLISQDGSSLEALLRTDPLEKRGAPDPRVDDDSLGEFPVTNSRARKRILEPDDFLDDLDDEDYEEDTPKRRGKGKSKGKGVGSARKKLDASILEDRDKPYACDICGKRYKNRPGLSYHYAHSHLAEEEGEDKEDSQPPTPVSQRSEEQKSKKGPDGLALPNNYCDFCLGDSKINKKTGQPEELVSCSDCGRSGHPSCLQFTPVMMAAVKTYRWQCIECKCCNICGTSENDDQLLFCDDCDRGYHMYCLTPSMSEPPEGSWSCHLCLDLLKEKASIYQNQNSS
UniProt Q14562: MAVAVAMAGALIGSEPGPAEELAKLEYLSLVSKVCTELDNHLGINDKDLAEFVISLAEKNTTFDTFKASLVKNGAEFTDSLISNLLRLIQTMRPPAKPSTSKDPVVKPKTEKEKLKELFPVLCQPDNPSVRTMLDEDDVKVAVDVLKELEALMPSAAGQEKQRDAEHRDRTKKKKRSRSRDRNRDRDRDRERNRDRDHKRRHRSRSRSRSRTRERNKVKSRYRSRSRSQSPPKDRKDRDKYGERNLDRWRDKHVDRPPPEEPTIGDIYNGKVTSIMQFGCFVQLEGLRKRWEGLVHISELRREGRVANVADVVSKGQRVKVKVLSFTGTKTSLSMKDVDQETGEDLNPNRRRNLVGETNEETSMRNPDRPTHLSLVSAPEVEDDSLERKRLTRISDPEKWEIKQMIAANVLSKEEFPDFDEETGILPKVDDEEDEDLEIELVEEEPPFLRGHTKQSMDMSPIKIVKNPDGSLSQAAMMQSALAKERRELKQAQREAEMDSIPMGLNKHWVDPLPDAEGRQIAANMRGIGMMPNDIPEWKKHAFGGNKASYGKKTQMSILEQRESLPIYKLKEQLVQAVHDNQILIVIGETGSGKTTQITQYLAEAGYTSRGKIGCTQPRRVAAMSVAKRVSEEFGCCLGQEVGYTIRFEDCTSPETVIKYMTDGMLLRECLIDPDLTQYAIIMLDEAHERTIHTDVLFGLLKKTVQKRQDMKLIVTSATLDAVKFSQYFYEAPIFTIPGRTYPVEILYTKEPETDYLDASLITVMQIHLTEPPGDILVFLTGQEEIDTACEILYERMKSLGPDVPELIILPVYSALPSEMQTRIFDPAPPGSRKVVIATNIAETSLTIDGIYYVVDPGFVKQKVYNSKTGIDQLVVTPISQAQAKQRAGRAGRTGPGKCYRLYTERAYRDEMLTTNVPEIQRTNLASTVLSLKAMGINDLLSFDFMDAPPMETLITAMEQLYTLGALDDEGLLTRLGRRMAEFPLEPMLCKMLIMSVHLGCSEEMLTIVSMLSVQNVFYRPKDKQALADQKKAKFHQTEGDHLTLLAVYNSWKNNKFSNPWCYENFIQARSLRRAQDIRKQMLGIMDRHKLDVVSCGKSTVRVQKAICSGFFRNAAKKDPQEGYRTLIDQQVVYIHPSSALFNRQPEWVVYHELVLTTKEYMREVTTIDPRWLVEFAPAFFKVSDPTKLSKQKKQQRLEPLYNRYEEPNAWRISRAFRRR
UniProt Q05048: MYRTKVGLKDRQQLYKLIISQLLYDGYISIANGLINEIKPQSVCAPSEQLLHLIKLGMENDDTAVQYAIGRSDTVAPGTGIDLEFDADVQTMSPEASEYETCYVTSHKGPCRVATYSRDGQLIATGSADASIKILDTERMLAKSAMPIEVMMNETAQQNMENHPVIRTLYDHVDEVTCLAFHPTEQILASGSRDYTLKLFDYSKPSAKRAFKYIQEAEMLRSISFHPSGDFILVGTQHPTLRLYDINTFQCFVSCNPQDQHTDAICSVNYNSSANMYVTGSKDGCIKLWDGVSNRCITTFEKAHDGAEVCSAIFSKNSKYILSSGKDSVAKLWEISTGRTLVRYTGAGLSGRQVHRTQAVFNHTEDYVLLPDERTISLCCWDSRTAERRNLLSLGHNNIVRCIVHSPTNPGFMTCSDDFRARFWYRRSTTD
UniProt Q12882: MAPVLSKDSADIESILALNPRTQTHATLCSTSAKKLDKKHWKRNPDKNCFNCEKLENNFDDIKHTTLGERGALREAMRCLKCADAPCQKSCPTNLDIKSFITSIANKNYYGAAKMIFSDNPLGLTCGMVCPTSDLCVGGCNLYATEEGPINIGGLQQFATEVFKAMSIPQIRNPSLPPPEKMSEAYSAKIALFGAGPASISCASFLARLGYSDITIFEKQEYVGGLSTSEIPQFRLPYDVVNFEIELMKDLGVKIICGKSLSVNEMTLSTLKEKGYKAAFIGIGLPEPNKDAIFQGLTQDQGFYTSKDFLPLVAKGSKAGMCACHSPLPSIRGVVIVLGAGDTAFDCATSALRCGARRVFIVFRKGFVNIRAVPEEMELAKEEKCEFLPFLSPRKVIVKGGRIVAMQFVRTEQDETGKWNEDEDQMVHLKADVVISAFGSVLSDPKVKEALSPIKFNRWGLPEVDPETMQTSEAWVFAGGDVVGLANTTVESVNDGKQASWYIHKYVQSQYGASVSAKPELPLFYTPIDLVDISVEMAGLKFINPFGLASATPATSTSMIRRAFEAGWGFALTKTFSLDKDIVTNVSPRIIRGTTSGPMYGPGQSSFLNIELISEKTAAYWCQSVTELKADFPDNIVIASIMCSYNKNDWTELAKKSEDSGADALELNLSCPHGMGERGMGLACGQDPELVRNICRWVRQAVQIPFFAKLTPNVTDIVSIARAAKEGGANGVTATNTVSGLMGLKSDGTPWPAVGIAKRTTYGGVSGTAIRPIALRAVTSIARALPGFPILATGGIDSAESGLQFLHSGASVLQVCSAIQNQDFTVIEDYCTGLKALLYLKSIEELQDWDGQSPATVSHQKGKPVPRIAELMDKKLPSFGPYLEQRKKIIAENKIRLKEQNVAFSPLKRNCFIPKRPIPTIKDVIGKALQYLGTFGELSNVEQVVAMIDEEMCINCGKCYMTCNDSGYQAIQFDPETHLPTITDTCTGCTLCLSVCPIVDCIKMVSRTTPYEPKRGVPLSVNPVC
UniProt Q8N8A6: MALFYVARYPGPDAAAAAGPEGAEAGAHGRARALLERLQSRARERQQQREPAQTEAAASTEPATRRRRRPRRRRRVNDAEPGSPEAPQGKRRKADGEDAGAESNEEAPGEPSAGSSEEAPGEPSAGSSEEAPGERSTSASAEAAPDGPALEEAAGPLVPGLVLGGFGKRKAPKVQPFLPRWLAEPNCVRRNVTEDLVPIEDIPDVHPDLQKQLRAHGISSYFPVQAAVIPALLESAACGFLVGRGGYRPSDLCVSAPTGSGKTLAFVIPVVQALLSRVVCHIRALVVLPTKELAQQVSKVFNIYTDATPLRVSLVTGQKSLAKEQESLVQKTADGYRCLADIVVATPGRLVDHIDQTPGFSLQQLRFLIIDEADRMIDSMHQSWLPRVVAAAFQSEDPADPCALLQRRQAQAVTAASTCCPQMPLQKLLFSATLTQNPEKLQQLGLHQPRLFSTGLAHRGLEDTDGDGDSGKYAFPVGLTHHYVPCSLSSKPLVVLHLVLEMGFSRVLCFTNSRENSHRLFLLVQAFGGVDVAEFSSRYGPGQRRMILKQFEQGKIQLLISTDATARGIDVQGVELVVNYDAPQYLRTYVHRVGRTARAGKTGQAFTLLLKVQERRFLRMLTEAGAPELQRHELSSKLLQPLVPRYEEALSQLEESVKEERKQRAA

compound: COc1ccc(Cn2ccc3cc(C)c(C(=O)NO)cc32)cc1; assay: dose-dependent thermal stabilisation call (2D-TPP, DLPTP, 10% FDR) (binary (1 = stabilised)); higher = stabilised by the compound; conditions: system: HL-60 intact cells; concentration range 0.04-10 µM
Protocol: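 2D thermal proteome profiling in intact HL-60 cells treated with BRD-3811 (0, 0.04, 0.29, 2, 10 uM) for 90 min at 37 C, then heated 3 min at one of 12 temperatures (42-63.9 C). Soluble protein was quantified by TMT10 MS. The value is the DLPTP call of the paper: dose-dependent thermal stabilisation over all temperatures at 10% FDR (F-test of a dose-response against a flat model); one experiment, one call per tested protein.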

**Q.** Which “dose-dependent thermal stabilisation call” value does the source give for DCP1A (UniProt Q9NPI6) here?
**A.** inactive: 0

**Q.** DHRS7B (UniProt Q6IAN0) was tested. Which “dose-dependent thermal stabilisation call” value did it give?
**A.** inactive: 0

**Q.** DNAJA3 (UniProt Q96EY1) was tested. Which “dose-dependent thermal stabilisation call” value did it give?
**A.** inactive: 0

**Q.** DAK (UniProt Q3LXA3) was tested. Which “dose-dependent thermal stabilisation call” value did it give?
**A.** inactive: 0

**Q.** How did the “dose-dependent thermal stabilisation call” value turn out when DNAJC2 (UniProt Q99543) was run?
**A.** inactive: 0

**Q.** With DNAJC25 (UniProt Q9H1X3) as the target, how does the “dose-dependent thermal stabilisation call” value read?
**A.** inactive: 0

**Q.** How did the “dose-dependent thermal stabilisation call” value turn out when DPH5 (UniProt Q9H2P9) was run?
**A.** inactive: 0

**Q.** Which “dose-dependent thermal stabilisation call” value does the source give for DNASE2 (UniProt O00115) here?
**A.** inactive: 0

**Q.** How did the “dose-dependent thermal stabilisation call” value turn out when CSNK1G2 (UniProt P78368) was run?
**A.** inactive: 0

**Q.** Which “dose-dependent thermal stabilisation call” value does the source give for DGUOK (UniProt Q16854) here?
**A.** inactive: 0

**Q.** With CSE1L (UniProt P55060) as the target, how does the “dose-dependent thermal stabilisation call” value read?
**A.** inactive: 0

**Q.** With DBT (UniProt P11182) as the target, how does the “dose-dependent thermal stabilisation call” value read?
**A.** inactive: 0

**Q.** CXORF26 (UniProt Q9BVG4) was tested. Which “dose-dependent thermal stabilisation call” value did it give?
**A.** inactive: 0

**Q.** DCTN5 (UniProt Q9BTE1) was tested. Which “dose-dependent thermal stabilisation call” value did it give?
**A.** inactive: 0

**Q.** How did the “dose-dependent thermal stabilisation call” value turn out when CYCS (UniProt P99999) was run?
**A.** inactive: 0

**Q.** DIS3L (UniProt Q8TF46) was tested. Which “dose-dependent thermal stabilisation call” value did it give?
**A.** inactive: 0

**Q.** How did the “dose-dependent thermal stabilisation call” value turn out when DHRS4 (UniProt Q9BTZ2) was run?
**A.** inactive: 0

**Q.** How did the “dose-dependent thermal stabilisation call” value turn out when DHODH (UniProt Q02127) was run?
**A.** inactive: 0

**Q.** For DOCK8 (UniProt Q8NF50), which “dose-dependent thermal stabilisation call” value is on record?
**A.** inactive: 0

**Q.** DNAJB11 (UniProt Q9UBS4) was tested. Which “dose-dependent thermal stabilisation call” value did it give?
**A.** inactive: 0

**Q.** For CSNK1A1 (UniProt P48729), which “dose-dependent thermal stabilisation call” value is on record?
**A.** inactive: 0

**Q.** For CUGBP1 (UniProt Q92879), which “dose-dependent thermal stabilisation call” value is on record?
**A.** inactive: 0

**Q.** Which “dose-dependent thermal stabilisation call” value does the source give for DENND4A (UniProt Q7Z401) here?
**A.** inactive: 0

**Q.** How did the “dose-dependent thermal stabilisation call” value turn out when CWF19L1 (UniProt Q69YN2) was run?
**A.** inactive: 0

**Q.** For DBNL (UniProt Q9UJU6), which “dose-dependent thermal stabilisation call” value is on record?
**A.** inactive: 0

**Q.** For DNAJC11 (UniProt Q9NVH1), which “dose-dependent thermal stabilisation call” value is on record?
**A.** inactive: 0

**Q.** How did the “dose-dependent thermal stabilisation call” value turn out when DNAJB12 (UniProt Q9NXW2) was run?
**A.** inactive: 0

**Q.** How did the “dose-dependent thermal stabilisation call” value turn out when DPF2 (UniProt Q92785) was run?
**A.** inactive: 0

**Q.** DOCK11 (UniProt Q5JSL3) was tested. Which “dose-dependent thermal stabilisation call” value did it give?
**A.** inactive: 0

**Q.** For DFFB (UniProt O76075), which “dose-dependent thermal stabilisation call” value is on record?
**A.** inactive: 0

**Q.** For DHX8 (UniProt Q14562), which “dose-dependent thermal stabilisation call” value is on record?
**A.** inactive: 0

**Q.** How did the “dose-dependent thermal stabilisation call” value turn out when CSTF1 (UniProt Q05048) was run?
**A.** inactive: 0

**Q.** For DPYD (UniProt Q12882), which “dose-dependent thermal stabilisation call” value is on record?
**A.** inactive: 0

**Q.** DGKA (UniProt P23743) was tested. Which “dose-dependent thermal stabilisation call” value did it give?
**A.** inactive: 0

**Q.** Which “dose-dependent thermal stabilisation call” value does the source give for DNMBP (UniProt Q6XZF7) here?
**A.** inactive: 0

**Q.** For DDX51 (UniProt Q8N8A6), which “dose-dependent thermal stabilisation call” value is on record?
**A.** inactive: 0
